Some of these results come from one statement about several compounds together. For at least one compound, name, drawing or mass did not settle the structure.
How the values were obtained:
Format in all cases: in vivo
[1] = tested on: cotton aphid (Aphis gossypii); assay: Test Example 11: control of cotton aphid on cucumber, spray; conditions: 500 ppm, 20 mL sprayed on cucumber (SAGAMI HANJIRO FUSHINARI) carrying 30 cotton aphids; surviving insects counted after 6 days
[2] = tested on: barley net blotch fungus (Pyrenophora teres); assay: Test Example 1: control of barley net blotch, foliar spray on barley; conditions: 500 ppm water dilution sprayed on barley (MIKAMO GOLDEN); inoculated after 2 days; investigated after 3 days high humidity + 7 days greenhouse
[3] = tested on: cucumber powdery mildew fungus (Sphaerotheca fuliginea, a QoI-resistant strain, cytochrome b position 143 glycine to alanine); assay: Test Example 6 and Comparative Test Example: control of cucumber powdery mildew (QoI-resistant strain), foliar spray on cucumber; conditions: 500 ppm water dilution sprayed on cucumber (SAGAMI HANJIRO); inoculated after air-drying; investigated after 8 days in greenhouse

Cc1csc(-c2ccc(OCc3c(C)cccc3-n3nnn(C)c3=O)c(C)c2)n1 [compound 34]
control value [1]: ≥ 90%
area of lesion spots on the treated plant relative to that on an untreated plant [2]: ≤ 30%
area of lesion spots on the treated plant relative to that on an untreated plant [3]: ≤ 30%

Source: US9730448B2, “Tetrazolinone compound and use of same” (Sumitomo Chemical Company, Limited, priority 2013, dated 2017)
